Reference: patent US10563263B2, “Genetic polymorphisms associated with statin response and cardiovascular diseases, methods of detection and uses thereof” (CELERA CORPORATION, priority 2010, dated 2020)
The source gives many values for each of these; only a part stands here.

Tested on: CHD
Test: Meta-analysis of CARE and WOSCOPS combined, synergy index, CHD endpoint
Assay type: in vivo, human
Excerpt: Tables 4-5 provide meta-analyses of CARE and WOSCOPS combined (2nd section of each table) for two endpoints (CHD and CVD) and three genetic models (dominant, recessive, and additive), as well as logistic regression analyses of CARE (3rd section of each table) and WOSCOPS (4th section of each table) individually.
Tables 12 and 17 provide results of meta-analysis of the CARE and WOSCOPS sample sets combined by direct genotyping and by imputing genotypes.
“P” indicates the p-value, and “P(R)” (or “P.R.”) indicates the p-value random effect. Both of these are p-values corresponding to a statistical test of whether the combined synergy index is equal to one but use different assumptions to derive the p-value. “P” is calculated using a fixed effects model, and “P(R)” is calculated using a random effects model.
“OR” indicates the odds ratio (synergy index) calculated from a fixed effects model, and “OR(R)” (or “OR.R.”) indicates the odds ratio (synergy index) calculated from a random effects model.

[1] = rs2163046 allele A DOMINANT Imputed
[2] = rs2180286 allele G DOMINANT Imputed
[3] = rs2180684 allele A DOMINANT Imputed
[4] = rs2188079 allele C ADDITIVE Imputed
[5] = rs2188079 allele C GENOTYPIC Imputed
[6] = rs2190598 allele T DOMINANT Imputed
[7] = rs2190600 allele A DOMINANT Imputed
[8] = rs2224184 allele T DOMINANT Genotyped
[9] = rs2247066 allele A DOMINANT Imputed
[10] = rs2248236 allele C ADDITIVE Imputed
[11] = rs2248236 allele C DOMINANT Imputed
[12] = rs2265733 allele C ADDITIVE Imputed
[13] = rs2265733 allele C DOMINANT Imputed
[14] = rs2270584 allele A ADDITIVE Imputed
[15] = rs2270584 allele A DOMINANT Imputed
[16] = rs2270586 allele A ADDITIVE Imputed
[17] = rs2270586 allele A DOMINANT Imputed
[18] = rs2317057 allele T ADDITIVE Imputed
[19] = rs2322100 allele T RECESSIVE Genotyped
[20] = rs2322101 allele A RECESSIVE Imputed
[21] = rs2327929 allele G RECESSIVE Imputed
[22] = rs2332844 allele A ADDITIVE Imputed
[23] = rs2332844 allele A RECESSIVE Imputed
[24] = rs2349170 allele G DOMINANT Imputed
[25] = rs2356722 allele G DOMINANT Imputed
[26] = rs2364956 allele T ADDITIVE Imputed
[27] = rs2373793 allele G ADDITIVE Imputed
[28] = rs2373793 allele G DOMINANT Imputed
[29] = rs2383903 allele G DOMINANT Imputed
[30] = rs2387945 allele G DOMINANT Imputed
[31] = rs2389863 allele A DOMINANT Imputed
[32] = rs2389866 allele C DOMINANT Imputed
[33] = rs2389869 allele C DOMINANT Imputed
[34] = rs2389870 allele C DOMINANT Genotyped
[35] = rs2418494 allele G ADDITIVE Imputed
[36] = rs2418494 allele G GENOTYPIC Imputed
[37] = rs2418541 allele A DOMINANT Imputed
[38] = rs2418542 allele A DOMINANT Imputed
[39] = rs2423556 allele C DOMINANT Imputed
[40] = rs2437688 allele C ADDITIVE Imputed
[41] = rs2456809 allele G DOMINANT Imputed
[42] = rs2456811 allele T ADDITIVE Imputed
[43] = rs2456811 allele T DOMINANT Imputed
[44] = rs2476976 allele C DOMINANT Imputed
[45] = rs2484911 allele A DOMINANT Imputed

What does the source list for `CC[C@H](C)C(=O)O[C@H]1C[C@H](O)C=C2C=C[C@H](C)[C@H](CC[C@@H](O)C[C@@H](O)CC(=O)O)[C@H]21` [Pravastatin, pravastatin]?
OR(R) (rs2158961 allele G DOMINANT Imputed): 0.6715; OR [1]: 1.4873; OR(R) [1]: 1.4873; OR [2]: 0.6528; OR(R) [2]: 0.6528; OR [3]: 1.6598; OR(R) [3]: 1.6598; Meta-analysis OR (rs2184393, A1 (non-ref) G, A2 (ref) A): 0.70; OR [4]: 1.3978; OR(R) [4]: 1.3978; OR [5]: 2.0195; OR(R) [5]: 2.0195; OR [6]: 0.6712; OR(R) [6]: 0.6712; OR [7]: 0.6775; OR(R) [7]: 0.6775; OR [8]: 0.6621; OR(R) [8]: 0.6621; Meta-analysis OR (rs2231496 allele G vs A (ref)): 0.72; OR [9]: 0.6306; OR(R) [9]: 0.6306; OR [10]: 0.6815; OR(R) [10]: 0.6815; OR [11]: 0.619; OR(R) [11]: 0.619; Meta-analysis OR (rs2263901 allele G vs A (ref)): 1.48; Meta-analysis OR (rs2263920 allele G vs A (ref)): 0.46; Meta-analysis OR (rs2265346 allele C vs A (ref)): 0.54; OR [12]: 0.6664; OR(R) [12]: 0.6664; OR [13]: 0.6016; OR(R) [13]: 0.6016; OR [14]: 0.7239; OR(R) [14]: 0.7239; OR [15]: 0.5915; OR(R) [15]: 0.5915; OR [16]: 0.7243; OR(R) [16]: 0.7243; OR [17]: 0.5928; OR(R) [17]: 0.5928; Meta-analysis OR (rs2274473 allele G vs A (ref)): 0.55; OR [18]: 0.7151; OR(R) [18]: 0.7151; OR [19]: 2.0921; OR(R) [19]: 2.0921; OR [20]: 2.0923; OR(R) [20]: 2.0923; OR [21]: 1.7968; OR(R) [21]: 1.7968; OR [22]: 1.7997; OR(R) [22]: 1.7997; OR [23]: 1.8396; OR(R) [23]: 1.8396; OR [24]: 1.5226; OR(R) [24]: 1.5226; OR [25]: 0.6136; OR(R) [25]: 0.6136; OR [26]: 1.5326; OR(R) [26]: 1.5326; OR [27]: 1.4555; OR(R) [27]: 1.4555; OR [28]: 1.5984; OR(R) [28]: 1.5984; OR [29]: 0.6336; OR(R) [29]: 0.6336; OR [30]: 1.4967; OR(R) [30]: 1.4967; OR [31]: 0.6585; OR(R) [31]: 0.6585; OR [32]: 0.6536; OR(R) [32]: 0.6536; OR [33]: 0.6536; OR(R) [33]: 0.6536; OR [34]: 0.6945; OR(R) [34]: 0.6945; OR [35]: 0.7772; OR(R) [35]: 0.7772; OR [36]: 0.5989; OR(R) [36]: 0.5989; OR [37]: 0.6661; OR(R) [37]: 0.6661; OR [38]: 0.6679; OR(R) [38]: 0.6679; OR [39]: 0.6507; OR(R) [39]: 0.6507; OR [40]: 1.4661; OR(R) [40]: 1.4661; OR [41]: 0.6286; OR(R) [41]: 0.6286; OR [42]: 0.6679; OR(R) [42]: 0.6679; OR [43]: 0.6034; OR(R) [43]: 0.6034; OR [44]: 1.5277; OR(R) [44]: 1.5277; OR [45]: 1.5304; OR(R) [45]: 1.5304
